# According to the supplement of paper PMC12889115:
# The other results are listed elsewhere or left out. Values are raw readings; no control value is given beside them.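 In the initial screen, polymyxin B was used at a concentration that permeabilizes Salmonella's outer membrane but not its inner membrane. Maximum growth was set by DMSO wells with or without polymyxin B. Since plates varied, data were ranked per plate, and compounds giving the lowest OD600 advanced as hits.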
# Test system: Salmonella enterica serovar Typhimurium SL1344
# Assay: bacterial growth OD600 after 18 h with compound and polymyxin B; higher = more bacterial growth (less inhibition)
# Details: 50 µM, Mueller-Hinton broth
SMILES,bacterial growth OD600 (polymyxin B 0.75 µg/mL),bacterial growth OD600 (polymyxin B 1 µg/mL)
CC(=O)NCC(=O)NCC1Cc2cc(-c3ccc(C(C)=O)s3)cc(Cl)c2O1 (configuration not stated),0.882,
O=C(Cn1cnc2ccccc21)N1CCCC(Nc2ccc3c(c2)OCCO3)C1 (configuration not stated),,0.959
O=C(NCc1cccc(C(F)(F)F)c1)C1CCC(=O)N(C2CCCCCC2)C1 (configuration not stated),,0.914
CN(Cc1cnccn1)C(=O)CC(c1ccccc1)c1ccccc1Cl (configuration not stated),,0.742
c1cncc(-c2ncc3c(n2)CCCC3NCc2ccncc2)c1 (configuration not stated),0.864,
Cc1cccc2nc(CN(C)Cc3cnc(S(C)(=O)=O)n3CC3CCCO3)[nH]c12 (configuration not stated),,1.03
CN(Cc1ccon1)c1ccc(C(=O)N2CCC(CCn3cccn3)CC2)cn1,,1.28
COCc1ccc(C(=O)Nc2ccc(-c3nc(CNC(=O)c4ccccc4SC)c(C)o3)cc2)o1,0.841,
CCC(CC)NCc1cccnc1Oc1ccc(C)nc1,0.947,
Cn1nccc1C(=O)N1CCC(C2CCN(Cc3cccnc3)CC2)C1 (configuration not stated),0.858,
O=C1NCCN1CCNc1ccc(-c2nc(-c3ccccc3F)no2)cn1,,0.917
COc1ccc(C(=O)N2CCCC(Nc3ccc(C)c(C)c3)C2)cc1OC (configuration not stated),,0.863
CCOC(=O)C1(CCOc2ccccc2)CCN(CC2CC2)CC1,,0.877
O=C(NC1CCc2ccccc21)C1CC(CCc2ccccc2)=NO1 (configuration not stated),0.607,
COc1ccc(C(CC(=O)N(C)C)c2ccccc2)cc1 (configuration not stated),,0.829
COc1ccc(-c2cnnc(N3CC[C@@H]4CCCC[C@H]4C3)n2)cc1F,0.166,
CC(C)(O)C#Cc1ccc(CN2CCCC(CNC(=O)c3ccco3)C2)cc1 (configuration not stated),,0.867
O=C(c1ccc[n+]([O-])c1)N1CCC(C2CCN(c3ncccn3)CC2)C1 (configuration not stated),0.843,
CCN(CC)C1CCN(C(=O)CCc2nnc(Cc3cc(OC)ccc3OC)o2)C1 (configuration not stated),,0.726
Cc1cc(C)n(-c2ccc(NC(=O)C3CCN(C(=O)C4CCC4)CC3)cc2)n1,,0.807
CN(Cc1ccccc1)c1ncccc1CNC(=O)CN1CCOC1=O,,0.902
CCO[C@H]1[C@H](NC(=O)c2ccco2)c2ccccc2C12CCN(C(=O)c1cn3c(C)cccc3n1)CC2,0.827,

# Ordered by number of heavy atoms (low to high): 3 of the compounds above
SMILES,bacterial growth OD600 (polymyxin B 0.75 µg/mL),bacterial growth OD600 (polymyxin B 1 µg/mL)
c1cncc(-c2ncc3c(n2)CCCC3NCc2ccncc2)c1 (configuration not stated),0.864,
O=C(c1ccc[n+]([O-])c1)N1CCC(C2CCN(c3ncccn3)CC2)C1 (configuration not stated),0.843,
O=C1NCCN1CCNc1ccc(-c2nc(-c3ccccc3F)no2)cn1,,0.917
